According to US9855341B2, “Formulations and carrier systems including farnesylthiosalycylic moities” (University of Pittsburgh—Of the Commonwealth System of …, priority 2014, dated 2018):

Columns and labels:
[1] = single i.v. dose, female CD-1 mice, two weeks
Source text: Changes in body weight and mouse survival were monitored daily for two weeks. The MTD was defined as the maximal dose that causes neither greater than 15% of body weight loss nor mouse mortality within two weeks after administration. See Lu, J.; Huang, Y.; Zhao, W.; Marquez, R. T.; Meng, X.; Li, J.; Gao, X.; Venkataramanan, R.; Wang, Z.; Li, S., PEG-derivatized embelin as a nanomicellar carrier for delivery of paclitaxel to breast and prostate cancers. Biomaterials, 34, 1591-600 (2013).

[2] = Plasma pharmacokinetics; conditions: DOX in plasma, i.v. 5 mg DOX/kg, non-compartment model
Method: The blood samples were collected in heparinized tubes at different time points (3 min, 8 min, 15 min, 30 min, 1 h, 2 h, 4 h, 8 h, and 12 h) post-injection. The blood was centrifuged (2,500 rpm, 10 min) and plasma was collected for the analysis. […] Non-compartmental pharmacokinetic analysis was done by WinNonlin. […] At day 1 post-injection, tumor tissues and major organs were collected from the mice. The tissues were weighed and homogenized using Homogenizer PowerGen 500 (Fisher Scientific). […] The solutions were centrifuged (2,500 rpm, 10 min) and the supernatant was used for HPLC measurement.

Work on `COc1cccc2c1C(=O)c1c(O)c3c(c(O)c1C2=O)C[C@@](O)(C(=O)CO)C[C@@H]3O[C@H]1C[C@H](N)[C@H](O)[C@H](C)O1` [DOX, doxorubicin] yielded an MTD [1] of 10 mg/kg and a T1/2 [2] of 1.74 h.
